PubChem BioAssay AID720710 | VTT Finland, 2013

Test: 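siRNAs sensitising CCNE1-overexpressing U-2 OS cells to replication stress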 (primary screen)
Cells: human U-2 OS bone cancer cells, parental and a cyclin E (CCNE1) overexpressing line
Reagents: single siRNA against human genes, 1 µM siRNA in the printed spot mix
Time to read-out: 67 h
Treatment: half the arrays: hydroxyurea 2 mM for 16 h, then 3 h recovery; other arrays untreated
Measurement: 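EdU click signal imaged per DAPI-stained nucleus at 67 h; each spot divided by its subgrid median, then z-scored relative to non-targeting control spots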
Direction: EdU z-score, cyclin E line, hydroxyurea: higher = more DNA synthesis than non-targeting controls
The whole screen tested about 1,380 reagents; shown is an unselected part. 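One array per condition without replicates; hydroxyurea arrays received 2 mM for 16 h plus 3 h recovery.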 Reagents against one gene are numbered here. Further read-outs or replicates are left out here.

What did the screen give for CBX2 (GeneID 84733) #1?
EdU z-score, cyclin E line, hydroxyurea: 0.462

With CBX2 (GeneID 84733) #2, what was measured?
EdU z-score, cyclin E line, hydroxyurea: 0.808

What is on record for CHAF1B (GeneID 8208) #1?
EdU z-score, cyclin E line, hydroxyurea: -0.763

How did the screen score CHAF1B (GeneID 8208) #2?
EdU z-score, cyclin E line, hydroxyurea: 0.574

What is on record for EXD2 (GeneID 55218) #1?
EdU z-score, cyclin E line, hydroxyurea: 0.41

For EXD2 (GeneID 55218) #2, how do the results read?
EdU z-score, cyclin E line, hydroxyurea: 0.941

With TRIM28 (GeneID 10155) #1, what was measured?
EdU z-score, cyclin E line, hydroxyurea: -1.67

For TRIM28 (GeneID 10155) #2, how do the results read?
EdU z-score, cyclin E line, hydroxyurea: -0.213

For H2BC9 (GeneID 8345) #1, how do the results read?
EdU z-score, cyclin E line, hydroxyurea: -1.83

With H2BC9 (GeneID 8345) #2, how do the results read?
EdU z-score, cyclin E line, hydroxyurea: -1.37

How did the screen score SETMAR (GeneID 6419) #1?
EdU z-score, cyclin E line, hydroxyurea: -1.64

For SETMAR (GeneID 6419) #2, what was measured?
EdU z-score, cyclin E line, hydroxyurea: 0.5

With MCM3AP (GeneID 8888) #1, what does the deposit list?
EdU z-score, cyclin E line, hydroxyurea: -0.171

What did the screen give for MCM3AP (GeneID 8888) #2?
EdU z-score, cyclin E line, hydroxyurea: 0.11

For NCAPG (GeneID 64151) #1, what was measured?
EdU z-score, cyclin E line, hydroxyurea: -0.479

For NCAPG (GeneID 64151) #2, what does the deposit list?
EdU z-score, cyclin E line, hydroxyurea: 0.505

Which result is listed for SMARCE1 (GeneID 6605) #1?
EdU z-score, cyclin E line, hydroxyurea: -0.5

Which result is listed for SMARCE1 (GeneID 6605) #2?
EdU z-score, cyclin E line, hydroxyurea: 0.88

How did the screen score UBE2A (GeneID 7319) #1?
EdU z-score, cyclin E line, hydroxyurea: -1.1

For UBE2A (GeneID 7319) #2, what does the deposit list?
EdU z-score, cyclin E line, hydroxyurea: -0.258

What did the screen give for SSRP1 (GeneID 6749) #1?
EdU z-score, cyclin E line, hydroxyurea: 0.642

What is on record for SSRP1 (GeneID 6749) #2?
EdU z-score, cyclin E line, hydroxyurea: 1.05

With GTF2H4 (GeneID 2968) #1, what does the deposit list?
EdU z-score, cyclin E line, hydroxyurea: -2.6

How did the screen score GTF2H4 (GeneID 2968) #2?
EdU z-score, cyclin E line, hydroxyurea: -1.45

How did the screen score CBX6 (GeneID 23466) #1?
EdU z-score, cyclin E line, hydroxyurea: 0.178

How did the screen score CBX6 (GeneID 23466) #2?
EdU z-score, cyclin E line, hydroxyurea: 0.246

What did the screen give for SIRT2 (GeneID 22933) #1?
EdU z-score, cyclin E line, hydroxyurea: -1.57

With SIRT2 (GeneID 22933) #2, what was measured?
EdU z-score, cyclin E line, hydroxyurea: -0.0663

What did the screen give for NAP1L3 (GeneID 4675) #1?
EdU z-score, cyclin E line, hydroxyurea: -1.53

How did the screen score NAP1L3 (GeneID 4675) #2?
EdU z-score, cyclin E line, hydroxyurea: 0.65

What is on record for HDAC4 (GeneID 9759) #1?
EdU z-score, cyclin E line, hydroxyurea: 0.974

How did the screen score HDAC4 (GeneID 9759) #2?
EdU z-score, cyclin E line, hydroxyurea: 1.69
